Assay results from PMC4737065.
These are yes or no findings as the source states them, for the method shown.

Target: T1, FLOURY ENDOSPERM7 (FLO7) (rice (Oryza sativa)) (UniProt Q337M4)
T1 sequence: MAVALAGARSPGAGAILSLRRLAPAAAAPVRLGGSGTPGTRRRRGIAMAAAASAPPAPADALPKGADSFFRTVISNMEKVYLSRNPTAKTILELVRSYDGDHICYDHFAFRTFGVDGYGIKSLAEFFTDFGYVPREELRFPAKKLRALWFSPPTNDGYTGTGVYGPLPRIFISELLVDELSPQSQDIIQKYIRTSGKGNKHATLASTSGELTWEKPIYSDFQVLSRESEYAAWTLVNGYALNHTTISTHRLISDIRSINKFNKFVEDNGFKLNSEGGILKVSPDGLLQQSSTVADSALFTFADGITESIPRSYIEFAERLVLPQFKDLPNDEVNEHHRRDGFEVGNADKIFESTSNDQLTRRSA
Test: two-hybrid; yeast two-hybrid; FLO7 in pGBKT7, the tested genes in pGADT7; transformation and screening by the manufacturer's instructions (Clontech)

Substance | binding
FLO2 (rice (Oryza sativa)) | no binding
FLO4 (rice (Oryza sativa)) | no binding
FLO6 (rice (Oryza sativa)) | no binding
